Measured values from paper doi:10.1101/2022.03.29.486178.
Like-named read-outs stand apart in the source and are kept apart here. These are yes or no findings as the source states them, for the method shown. Binding seen in cells or lysates may run through a third protein. Some entries that bind do so weakly or less than the wild type. For some of these results: Tags and fused reporters may be left off the sequences shown.

By UniProt entry, the sequences of proteins in these tests, tags left out.
UniProt P0CAP2: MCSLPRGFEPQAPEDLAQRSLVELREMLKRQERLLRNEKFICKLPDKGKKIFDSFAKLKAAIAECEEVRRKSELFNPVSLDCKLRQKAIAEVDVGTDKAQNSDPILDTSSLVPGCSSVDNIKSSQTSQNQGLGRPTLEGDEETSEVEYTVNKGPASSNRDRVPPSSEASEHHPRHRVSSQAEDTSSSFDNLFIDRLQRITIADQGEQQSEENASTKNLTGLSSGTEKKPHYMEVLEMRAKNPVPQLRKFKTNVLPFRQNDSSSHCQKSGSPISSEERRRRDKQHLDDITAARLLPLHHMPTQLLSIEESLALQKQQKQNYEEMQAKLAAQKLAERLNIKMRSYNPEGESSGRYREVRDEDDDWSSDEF
UniProt O14980: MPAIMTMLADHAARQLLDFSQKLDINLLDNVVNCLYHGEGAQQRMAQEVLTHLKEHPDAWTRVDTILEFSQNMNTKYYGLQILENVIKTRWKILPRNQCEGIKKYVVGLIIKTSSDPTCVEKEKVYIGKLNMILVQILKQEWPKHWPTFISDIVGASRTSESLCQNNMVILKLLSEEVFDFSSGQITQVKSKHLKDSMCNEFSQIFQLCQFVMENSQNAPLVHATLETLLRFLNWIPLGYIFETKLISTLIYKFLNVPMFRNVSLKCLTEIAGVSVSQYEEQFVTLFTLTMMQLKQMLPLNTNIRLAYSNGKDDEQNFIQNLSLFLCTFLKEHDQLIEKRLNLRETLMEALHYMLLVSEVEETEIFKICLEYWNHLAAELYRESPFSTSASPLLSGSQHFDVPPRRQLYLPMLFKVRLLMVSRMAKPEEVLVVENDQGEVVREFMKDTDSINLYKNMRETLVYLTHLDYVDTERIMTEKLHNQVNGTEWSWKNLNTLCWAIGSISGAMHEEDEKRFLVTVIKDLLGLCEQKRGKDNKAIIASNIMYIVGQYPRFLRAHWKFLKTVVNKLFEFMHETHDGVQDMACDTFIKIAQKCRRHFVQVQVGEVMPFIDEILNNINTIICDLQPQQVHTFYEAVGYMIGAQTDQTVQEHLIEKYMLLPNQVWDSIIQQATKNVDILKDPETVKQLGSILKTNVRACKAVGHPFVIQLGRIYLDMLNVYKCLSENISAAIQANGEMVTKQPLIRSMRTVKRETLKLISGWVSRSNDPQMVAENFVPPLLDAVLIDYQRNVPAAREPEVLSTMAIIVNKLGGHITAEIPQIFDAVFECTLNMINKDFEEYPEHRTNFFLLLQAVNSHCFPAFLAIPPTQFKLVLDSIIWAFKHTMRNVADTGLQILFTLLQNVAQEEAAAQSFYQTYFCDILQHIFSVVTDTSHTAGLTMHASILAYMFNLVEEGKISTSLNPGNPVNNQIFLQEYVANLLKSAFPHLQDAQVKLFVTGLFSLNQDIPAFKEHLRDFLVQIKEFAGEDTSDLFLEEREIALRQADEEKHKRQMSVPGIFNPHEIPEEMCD
UniProt Q15648: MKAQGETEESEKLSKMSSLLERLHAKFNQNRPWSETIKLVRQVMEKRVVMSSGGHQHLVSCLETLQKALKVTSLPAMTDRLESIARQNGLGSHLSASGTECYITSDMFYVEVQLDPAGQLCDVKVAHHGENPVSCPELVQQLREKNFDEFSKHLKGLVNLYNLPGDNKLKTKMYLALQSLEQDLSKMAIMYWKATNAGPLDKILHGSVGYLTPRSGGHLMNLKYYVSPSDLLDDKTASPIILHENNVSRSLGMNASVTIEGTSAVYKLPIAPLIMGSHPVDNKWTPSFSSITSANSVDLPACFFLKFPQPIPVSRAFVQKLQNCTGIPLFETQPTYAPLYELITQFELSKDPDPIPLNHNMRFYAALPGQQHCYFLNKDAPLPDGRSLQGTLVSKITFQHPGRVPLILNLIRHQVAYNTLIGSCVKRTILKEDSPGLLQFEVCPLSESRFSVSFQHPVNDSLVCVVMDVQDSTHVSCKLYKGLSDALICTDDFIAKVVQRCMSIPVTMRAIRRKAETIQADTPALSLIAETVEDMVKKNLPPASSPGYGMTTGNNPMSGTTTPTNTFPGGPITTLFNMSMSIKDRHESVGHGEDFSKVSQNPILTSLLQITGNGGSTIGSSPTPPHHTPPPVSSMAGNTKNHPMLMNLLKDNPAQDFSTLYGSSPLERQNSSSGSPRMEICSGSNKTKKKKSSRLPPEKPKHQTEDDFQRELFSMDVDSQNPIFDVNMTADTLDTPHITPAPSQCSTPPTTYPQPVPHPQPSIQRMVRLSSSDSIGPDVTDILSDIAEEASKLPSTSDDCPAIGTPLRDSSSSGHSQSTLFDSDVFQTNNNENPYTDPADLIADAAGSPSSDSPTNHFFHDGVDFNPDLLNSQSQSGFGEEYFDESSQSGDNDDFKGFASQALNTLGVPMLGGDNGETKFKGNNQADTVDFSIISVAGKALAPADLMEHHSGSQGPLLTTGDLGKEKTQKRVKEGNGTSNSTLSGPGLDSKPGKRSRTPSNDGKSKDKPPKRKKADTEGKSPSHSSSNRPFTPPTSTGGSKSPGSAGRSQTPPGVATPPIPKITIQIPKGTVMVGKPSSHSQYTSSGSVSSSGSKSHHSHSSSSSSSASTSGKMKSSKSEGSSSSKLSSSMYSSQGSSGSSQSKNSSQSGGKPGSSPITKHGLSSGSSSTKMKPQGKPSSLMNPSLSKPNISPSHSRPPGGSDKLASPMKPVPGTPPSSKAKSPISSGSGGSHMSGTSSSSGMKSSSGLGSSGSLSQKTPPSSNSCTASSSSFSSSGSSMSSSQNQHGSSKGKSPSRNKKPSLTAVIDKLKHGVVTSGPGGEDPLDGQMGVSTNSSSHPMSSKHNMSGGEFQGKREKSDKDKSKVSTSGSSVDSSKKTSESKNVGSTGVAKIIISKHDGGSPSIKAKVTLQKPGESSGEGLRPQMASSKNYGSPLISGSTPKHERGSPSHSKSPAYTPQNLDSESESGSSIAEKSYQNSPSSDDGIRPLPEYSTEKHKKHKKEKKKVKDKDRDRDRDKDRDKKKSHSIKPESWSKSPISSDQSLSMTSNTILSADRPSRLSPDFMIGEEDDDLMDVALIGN

Tests used:
[1] = target: human GDOWN1 (POLR2M), full length, wild type, BiFC fusion (human) (UniProt P0CAP2); assay: split reporter
[2] = target: GDOWN1-Venus-Flag, wild type (human) (UniProt P0CAP2); assay: co-IP
[3] = target: human GDOWN1 (POLR2M), full length, wild type, BiFC fusion (human) (UniProt P0CAP2); assay: split reporter; remark: listed apart in the source

| binding [3] | Molecule | other results |
| --- | --- | --- |
| – | VN-CRM1, BiFC fusion (from UniProt O14980 1-1071) | binding [1]: binds |
| – | CRM1, endogenous (from UniProt O14980 1-1071) | binding [2]: binds |
| – | MED1, BiFC fusion (from UniProt Q15648 1-1581) | binding [1]: no binding |
| binds weakly | NUP50, BiFC fusion (protein, UniProt Q9UKX7 1-468) MAKRNAEKELTDRNWDQEDEAEEVGTFSMASEEVLKNRAIKKAKRRNVGFESDTGGAFKGFKGLVVPSGGGRFSGFGSGAGGKPLEGLSNGNNITSAPPFASAKAAADPKVAFGSLAANGPTTLVDKVSNPKTNGDSQQPSSSGLASSKACVGNAYHKQLAALNCSVRDWIVKHVNTNPLCDLTPIFKDYEKYLANIEQQHGNSGRNSESESNKVAAETQSPSLFGSTKLQQESTFLFHGNKTEDTPDKKMEVASEKKTDPSSLGATSASFNFGKKVDSSVLGSLSSVPLTGFSFSPGNSSLFGKDTTQSKPVSSPFPTKPLEGQAEGDSGECKGGDEEENDEPPKVVVTEVKEEDAFYSKKCKLFYKKDNEFKEKGIGTLHLKPTANQKTQLLVRADTNLGNILLNVLIPPNMPCTRTGKNNVLIVCVPNPPIDEKNATMPVTMLIRVKTSEDADELHKILLEKKDA | – |
| binds | RPRD1B, BiFC fusion (protein, UniProt Q9NQG5 1-326) MSSFSESALEKKLSELSNSQQSVQTLSLWLIHHRKHAGPIVSVWHRELRKAKSNRKLTFLYLANDVIQNSKRKGPEFTREFESVLVDAFSHVAREADEGCKKPLERLLNIWQERSVYGGEFIQQLKLSMEDSKSPPPKATEEKKSLKRTFQQIQEEEDDDYPGSYSPQDPSAGPLLTEELIKALQDLENAASGDATVRQKIASLPQEVQDVSLLEKITDKEAAERLSKTVDEACLLLAEYNGRLAAELEDRRQLARMLVEYTQNQKDVLSEKEKKLEEYKQKLARVTQVRKELKSHIQSLPDLSLLPNVTGGLAPLPSAGDLFSTD | – |
| binds | RAE1, BiFC fusion (protein, UniProt P78406 1-368) MSLFGTTSGFGTSGTSMFGSATTDNHNPMKDIEVTSSPDDSIGCLSFSPPTLPGNFLIAGSWANDVRCWEVQDSGQTIPKAQQMHTGPVLDVCWSDDGSKVFTASCDKTAKMWDLSSNQAIQIAQHDAPVKTIHWIKAPNYSCVMTGSWDKTLKFWDTRSSNPMMVLQLPERCYCADVIYPMAVVATAERGLIVYQLENQPSEFRRIESPLKHQHRCVAIFKDKQNKPTGFALGSIEGRVAIHYINPPNPAKDNFTFKCHRSNGTNTSAPQDIYAVNGIAFHPVHGTLATVGSDGRFSFWDKDARTKLKTSEQLDQPISACCFNHNGNIFAYASSYDWSKGHEFYNPQKKNYIFLRNAAEELKPRNKK | – |
| no binding | MED26, BiFC fusion (protein, UniProt O95402 1-600) MTAAPASPQQIRDRLLQAIDPQSNIRNMVAVLEVISSLEKYPITKEALEETRLGKLINDVRKKTKNEELAKRAKKLLRSWQKLIEPAHQHEAALRGLAGATGSANGGAHNCRPEVGAAGPPRSIHDLKSRNDLQRLPGQRLDRLGSRKRRGDQRDLGHPGPPPKVSKASHDPLVPNSSPLPTNGISGSPESFASSLDGSGHAGPEGSRLERDENDKHSGKIPVNAVRPHTSSPGLGKPPGPCLQPKASVLQQLDRVDETPGPPHPKGPPRCSFSPRNSRHEGSFARQQSLYAPKGSVPSPSPRPQALDATQVPSPLPLAQPSTPPVRRLELLPSAESPVCWLEQPESHQRLAGPGCKAGLSPAEPLLSRAGFSPDSSKADSDAASSGGSDSKKKKRYRPRDYTVNLDGQVAEAGVKPVRLKERKLTFDPMTRQIKPLTQKEPVRADSPVHMEQQSRTELDKQEAKASLQSPFEQTNWKELSRNEIIQSYLSRQSSLLSSSGAQTPGAHHFMSEYLKQEESTRQGARQLHVLVPQSPPTDLPGLTREVTQDDLDRIQASQWPGVNGCQDTQGNWYDWTQCISLDPHGDDGRLNILPYVCLD | – |
